# Measurements as given in patent US5912233A, “Methods and peptides for the treatment of non-IgE-mediated diseases” (Dura Pharmaceuticals, Inc., priority 1995, dated 1999).
# Where “and” joins values, the source holds several entries; their conditions need not be identical. Equal entries are not always repeated. Part of at least one peptide drawing is inferred or uncertain, most often the ends. Residues, ends and D or L forms follow the SMILES beside them.
# Assays:
# [1] = tested on: immune complex-mediated ulcerative colitis; test: Immune complex-induced ulcerative colitis model (formalin + IgG immune complexes); type: in vivo, BKA mice
# Description: A mouse model of intestinal inflammation was employed wherein the efficacy of pentigetide in reducing inflammation induced by formalin and complementfixing lgG immune complexes was measured. This model is particularly useful as a model of human ulcerative colitis and shares many clinical and histological functions of the human disease including sensitivity to glucocorticoids, sulfasalazine and 5-aminosalicylic acid (see L. P. Walsh, et al., British J. Pharm. 91:294 (1987); A. Blackham, et al., British J. Pharm. 89:694 (1986); L. D. Walsh and I. J. Zeitlin, British J. Pharm. 92:741 (1987)). The mouse model of intestinal inflammation used in these studies is induced by the exposure of the animals to chemicals which are known to trigger inflammatory processes in both animals and humans. The first step in inducing inflammation in this model is the exposure of tissues to formalin (an aqueous solution of formaldehyde gas), which is known to produce irritation and inflammation upon contact with cells of animals or humans (Clinical Toxicology of Commercial Products (R. E. Gosselin, et al., editor), 5th edition, Williams & Wilkins, 1984, pp. III-196 to III-198). At the peak of formalin-induced inflammation, IgG immune complexes are injected to further activate inflammatory processes which involve activation of leukocytes and the complement system. Inflammation induced by immune complexes is classified as Type III hypersensitivity and contributes to many disease processes, some of which were previously discussed.
# In the immune complex-mediated ulcerative colitis model employed, intestinal inflammation was induced in male BKA mice (outbred Swiss albino) (20-30 g) using the method described by Walsh in mice (i.e., Walsh, et al., British J. Pharm. 91:294, 1987) and by Hodgson in rabbits (Hodgson, et al., Gut 19:225 (1978)). As a primary irritant, 1% formalin in saline was instilled intra-rectally into mice. Three hours later, at the peak of the initial formalin response, immune complexes composed of polyclonal rabbit anti-human serum albumin (HSA) (Sigma) formed in antigen excess were injected i.v. The resultant colitic inflammation reached a maximum three days later. Mice were then sacrificed for evaluation.
# Colonic tissue water content was determined by tissue weight loss on drying of colonic tissues.
# Each experiment consisted of (A) a group of untreated healthy mice (n=10), (B) a vehicle treated control group which had received only intra-rectal formalin solution (n=10), (C) a group of formalin+IgG-anti HSA-treated mice given s.c. saline injections and (D) one or two formalin and IgG-anti HSA experimental drug treatment groups (n=10).
# The response to immune complex alone was determined quantitatively by subtracting the mean value in group B from the mean value in group C. An estimate of the percentage reduction in this response produced by the drug was calculated as: [formula] Group A animals (healthy) were used as a baseline to monitor Group B animals (formalin instillation only). Since the formalin-induced inflammation is transient, any inflammation present in the formalin only group (compared with healthy group A) at sacrifice on day 3 would constitute evidence that an unknown source of inflammation was present and all results from that particular experiment would be discarded. Statistical significance was determined using the non-parametric Mann-Whitney U-test.
# In order to establish a dose-response profile for pentigetide, animals received 0.012, 0.06, 0.3, 1.5, 7.5 or 37.5 mg pentigetide/kg subcutaneously 1 day prior and 1 hour prior to induction of colitis and daily for a further 3 days until sacrificed. Vehicle control or control peptides were administered to control groups in the same volume and according to the same schedule as pentigetide. Prednisolone (5 mg/kg) was administered i.p. daily for three days prior to induction of colitis and subsequently daily for a further 3 days as a positive control. […]
# [2] = tested on: carrageenan-induced inflammation; test: Carrageenan-induced footpad edema; type: in vivo, Balb/C mice; conditions: 1.0 mg/kg i.v. 5 min before carrageenan
# Description: In order to examine the ability of pentigetide to inhibit carrageenan-induced inflammation, female Balb/C mice were injected with 0.025 ml of 1.0% carrageenan solution (type lx carrageenan: Sigma No. C-1013, Lot No. 86F-0698) or saline in the right hind footpad 5 minutes after intravenous tail vein injection of 0.2 ml pentigetide (1.0 mg/kg) or saline solution. Indomethacin (10 mg/kg was used as a positive control and was administered by subcutaneous injection 24 hours prior to carrageenan injection. Footpad volumes were measured using a Buxco plethysmograph over a 6 hour period. Pentigetide produced substantial inhibition of carrageenan-induced inflammation when compared to saline control animals.
# [3] = tested on: chronic idiopathic urticaria
# [4] = tested on: sheep erythrocyte (SRBC)-induced DTH reactions; test: Sheep erythrocyte (SRBC)-induced DTH, footpad volume; type: in vivo, Balb/C mice; conditions: days 2, 3, 4, about 24 h after challenge
# [5] = tested on: local cutaneous allergic reaction (Prausnitz-Kustner); conditions: Hamburger, Science 189:389 (1975); cited from earlier work
# [6] = tested on: IgE Fc receptors on basophils and monocyte/macrophages; conditions: U.S. Pat. No. 4,628,045; cited from earlier work
# [7] = tested on: lymphoblastoid tissue culture cells; conditions: two trials; U.S. Pat. No. 4,161,522; cited from earlier work
# [8] = control peptide trial, 0.3 mg/kg s.c.
# [9] = dose-response trial, 0.3 mg/kg s.c., p<0.01
# [10] = dose-response trial, above 1.5 mg/kg s.c.
smiles,measurement,setting,value
"N=C(N)NCCC[C@H](NC(=O)[C@@H]1CCCN1C(=O)[C@H](CC(=O)O)NC(=O)[C@H](CO)NC(=O)[C@@H](N)CC(=O)O)C(=O)O [pentigetide, Asp-Ser-Asp-Pro-Arg] (H-DSDPR-OH)",microscopic signs of colon inflammation,"[1]; 0.3 mg/kg, H&E colonic tissue, vehicle control 36.1% of mice",no inflammatory changes were observed
same,reduction of colonic edema,"[1]; 1.5 mg/kg s.c. commencing one hour prior to formalin (prophylactic), p<0.01",95.2%
same,reduction of colonic edema,"[1]; 1.5 mg/kg s.c. commencing three hours after immune complexes (therapeutic), p<0.01",95.2%
same,reduction of the colitic score,"[1]; 1.5 mg/kg s.c. prophylactic, one hour prior to formalin, p<0.001",59.3%
same,reduction of the colitic score,"[1]; 1.5 mg/kg s.c. therapeutic, p<0.01",37.0%
same,mice with significant microscopic lesions,"[1]; 1.5 mg/kg, vehicle control 35.0%",13.7%
same,percent inhibition of colonic edema,[1]; [8],72.2%
same,suppression of colitic sign scores,[1]; [8],70.4%
same,reduction in mean colitis score,"[1]; dose-response trial, 0.012 mg/kg s.c., p<0.01",69.7%
same,reduction in mean colitis score,"[1]; dose-response trial, 0.06 mg/kg s.c., p<0.001",90.9%
same,percent inhibition of colonic edema,[1]; [9],60.0%
same,reduction in mean colitis score,[1]; [9],76.0%
same,percent inhibition of colonic edema,"[1]; dose-response trial, 1.5 mg/kg s.c., maximum response, p<0.01",70.0%
same,reduction in mean colitis score,"[1]; dose-response trial, 1.5 mg/kg s.c., p<0.001",88.0%
same,reduction of the edema response,[1]; [10],decreasingly effective
same,suppression of the signs of colitis,[1]; [10],decreasingly effective
same,Percent Inhibition,[2]; 1.0 hours after carrageenan injection,-2%
same,Percent Inhibition,[2]; 2.0 hours after carrageenan injection,-51%
same,Percent Inhibition,[2]; 4.0 hours after carrageenan injection,-19%
same,Percent Inhibition,[2]; 6.0 hours after carrageenan injection,-34%
same,hives,"[3]; Patient A, 100 mg s.c. Mon/Wed/Fri, 48 hours after initial therapy and throughout two weeks, before treatment 30 to 40 per day",5-10 per day
same,seasonal allergic rhinitis,"[3]; Patient A, within 24 hours of initial therapy",totally resolved
same,pruritus,"[3]; Patient B, after two days of therapy",almost total resolution of pruritus
same,hive count,"[3]; Patient B, after two days of therapy, before treatment greater than 100 a day",less than 10 per day
same,relief of urticaria,"[3]; Patient B, dose reduced to 100 mg then 50 mg s.c. twice per week",Total relief
same,nodular urticarial lesions,"[3]; Patient B, sixth day of injections",no more evidence of nodular urticarial lesions
same,clinical improvement,"[3]; Patient B, within 24 hours of treatment",marked improvement
same,Percent Inhibition (footpad swelling),[4]; pentigetide 1.0 mg/kg,8%
same,Percent Inhibition (footpad swelling),[4]; pentigetide 100.0 mg/kg,23%
same,Percent Inhibition (footpad swelling),[4]; pentigetide 400.0 mg/kg,36%
same,Percent Inhibition (footpad swelling),[4]; pentigetide 800.0 mg/kg,41%
same,inhibition of local cutaneous allergic reaction (Prausnitz-Kustner),[5],approximately 90%
N=C(N)NCCC[C@H](NC(=O)[C@@H]1CCCN1C(=O)[C@H](CC(N)=O)NC(=O)[C@H](CO)NC(=O)[C@@H](N)CC(=O)O)C(=O)O [Asp-Ser-Asn-Pro-Arg] (H-DSNPR-OH),percent inhibition of colonic edema,[1]; [8],54.5%
same,suppression of colitic sign scores,[1]; [8],69.3%
same,inhibition of rosette formation,[6],particular activity
same,activity in blocking binding of IgE to lymphoblastoid tissue culture cells,[7],5% and 6%
